Experimental data as given in article PMC7819943, “Rice protein-binding microarrays: a tool to detect cis-acting elements near promoter regions in rice”.
This is one part of the list.

Amino acid sequences for entries named in this document (tags omitted).
UniProt Q0JBA9, entry or part of it: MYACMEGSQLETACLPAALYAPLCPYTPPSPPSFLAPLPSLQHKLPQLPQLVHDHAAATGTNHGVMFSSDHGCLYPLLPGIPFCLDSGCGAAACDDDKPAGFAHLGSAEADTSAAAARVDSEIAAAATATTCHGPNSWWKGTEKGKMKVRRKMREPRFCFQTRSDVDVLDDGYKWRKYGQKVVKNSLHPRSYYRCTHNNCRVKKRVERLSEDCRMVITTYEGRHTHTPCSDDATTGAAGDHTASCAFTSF

Target: OsWRKY34 (Oryza sativa, UniProt Q0JBA9 1-250)
Assay: protein-binding microarray (RPBM); PBS, 2% BSA, 51.3 ng/ul salmon testes DNA, 50 uM zinc acetate, 200 nM TF, 25 C, 1 h; high values mean tight binding
Settings: protein: recombinant; tags: N-terminal polyhistidine and DsRed monomer fusion (pET32a); label: CyDye5-dUTP incorporated in the synthesized complementary strand; 3' TTTTT single-stranded linker to array surface; dsDNA, one strand shown
Procedure, shortened: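 Ni–NTA purification followed expression in E. coli BL21-CodonPlus of transcription factors fused N-terminally to a polyhistidine tag and DsRed. At 200 nM in PBS with 2% BSA, salmon testes DNA and 50 µM zinc acetate, the protein was incubated for 1 h at 25 °C with a custom Agilent array that had been primer-extended with Cy5-dUTP and blocked with 2% BSA. After washing, the array was read on an Axon 4000B scanner. The binding signal is per-feature fluorescence intensity in arbitrary units.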

Row | Sequence | binding signal
1 | TCCCAATCTTCTGTTATTTATTTATTTTCTTGTTAAAATTCGGAGTCACCTAGTGCAG | 9310 fluorescence intensity (a.u.)
2 | ACCGCAGCCCATGTCCTTTTCCGTCATTTCACTTCAACTCCGGAGTCACCTAGTGCAG | 10800 fluorescence intensity (a.u.)
3 | CTATCTCTCACACTGATCCAGGCTCTCTCCACTACTATATCGGAGTCACCTAGTGCAG | 8300 fluorescence intensity (a.u.)
4 | TCTTTTGGTTTACAACACTTTGTATGCTAGCATTATTTTGCGGAGTCACCTAGTGCAG | 8880 fluorescence intensity (a.u.)
5 | TTTTTTTGCGGGGAGACATGTTACATATTTGCTTAGGTTACGGAGTCACCTAGTGCAG | 8620 fluorescence intensity (a.u.)
6 | TCTCAACGACGAAATTCCCTTATCAACTCGGATTCTTTCTCGGAGTCACCTAGTGCAG | 9620 fluorescence intensity (a.u.)
7 | GGCTGGCGTCCGCGCTTTTCCAGCACCAACTCTCGTACGCCGGAGTCACCTAGTGCAG | 9320 fluorescence intensity (a.u.)
8 | ATTCACTCTTTCATCACTCACTTTCTCTCTACAGCGGGCACGGAGTCACCTAGTGCAG | 8910 fluorescence intensity (a.u.)
9 | AAGTCTTCAGGCTTAGCTCGCTTTTATCTTTTTCCGCTGCCGGAGTCACCTAGTGCAG | 8120 fluorescence intensity (a.u.)
10 | GCCCGGCCCAGTAGATACCACCACCTCACACTCCATTCGCCGGAGTCACCTAGTGCAG | 9860 fluorescence intensity (a.u.)
11 | CTCTTGCCATCCTCTACCTGCTCTCTCAAACCTTTGGCATCGGAGTCACCTAGTGCAG | 10100 fluorescence intensity (a.u.)
12 | AACATGATTGTTTTCTCTCACTGTCTTTTTAGAGCATCCACGGAGTCACCTAGTGCAG | 9620 fluorescence intensity (a.u.)
13 | GCGTCACATAACTAGTAGTATCCTTTTGACTTCCATAAACCGGAGTCACCTAGTGCAG | 9730 fluorescence intensity (a.u.)
14 | GGTCCTAGGGCTGGGAGGGTATAAACTTAGCTAAGGGCAACGGAGTCACCTAGTGCAG | 8870 fluorescence intensity (a.u.)
15 | CCTCTCCATCGCCGCCGCCACGGCCCGTGTCGAGGTCGCCCGGAGTCACCTAGTGCAG | 8440 fluorescence intensity (a.u.)
16 | CTTCGTCGTTCGTCCTGCTGCTTCCGCCGCATCCATCCTGCGGAGTCACCTAGTGCAG | 12900 fluorescence intensity (a.u.)
17 | CTTCCCGTTACATTACACTGCATTACATTAAATTACATTACGGAGTCACCTAGTGCAG | 8500 fluorescence intensity (a.u.)
18 | ACTATTAATATATGGTCCCACCTGTCATACACATATTACGCGGAGTCACCTAGTGCAG | 10200 fluorescence intensity (a.u.)
19 | GACACTAATGTGTGTGAAGGGGAGATTGTTGAATGGTTCCCGGAGTCACCTAGTGCAG | 65200 fluorescence intensity (a.u.)
20 | AAACTTGCCATTTCTTTTATGGGCCTCAATGTAGGCCCATCGGAGTCACCTAGTGCAG | 8940 fluorescence intensity (a.u.)
21 | CTCTAAAATACTCCAGTGCTCGGTTATATTCTAGCCTCTACGGAGTCACCTAGTGCAG | 8680 fluorescence intensity (a.u.)
22 | CACCCATACACGTGTCGCCATCCCAAGCCCTCTGCCTCCTCGGAGTCACCTAGTGCAG | 10200 fluorescence intensity (a.u.)
23 | AATTCACTCCTGGTTTCTCAAATCAACACCTTTGCTCTCACGGAGTCACCTAGTGCAG | 8340 fluorescence intensity (a.u.)

Random excerpt: two records from the list.
Row | Sequence | binding signal
20 | AAACTTGCCATTTCTTTTATGGGCCTCAATGTAGGCCCATCGGAGTCACCTAGTGCAG | 8940 fluorescence intensity (a.u.)
5 | TTTTTTTGCGGGGAGACATGTTACATATTTGCTTAGGTTACGGAGTCACCTAGTGCAG | 8620 fluorescence intensity (a.u.)
